## Library screening results

Mtb growth Cornell: 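Whole-cell assay for inhibitors of Mycobacterium tuberculosis growth, labelled Cornell in the record; the read-out is not stated. The concentration is filed as 10 mM, unlikely as a test dose, so the dose is not known. Higher means stronger inhibition (inferred from two other growth screens of the library). Size under these conditions: about 53,000 compounds, about 900 of them at 50% or above in at least one test.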
Mtb heat-shock: 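Assay on Mycobacterium tuberculosis, filed only as a heat shock assay from Cornell; the read-out is not stated. The concentration is filed as 10 mM, unlikely as a test dose, so the dose is not known. Higher reads as stronger inhibition (inferred: compounds with an IC50 in retests scored well above the rest). About 69,000 compounds were tested under these conditions; 1.4% (about 930) showed 50% or more at least once.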

The filed quantity is “Percent Effect” (%). The controls that fix the scale are not given in the record; negative values are as filed. The compounds are a random part of those screened. A dash means the value is not listed here; it may have been measured.

| Compound | Mtb growth Cornell | Mtb heat-shock |
|---|---|---|
| `O=C(CCc1cccnc1)Nc1ccc(OCC2CCOCC2)cc1` | 30.42% | 7.638% |
| `CC(C)(C)c1coc([C@@H]2COCCN2Cc2ccccn2)n1` | 6.634% | 0.2864% |
| `CCN(C)S(=O)(=O)N1CCCC(c2cccc(C(=O)O)c2)C1` (stereo not drawn) | - | 6.957% |
| `CCn1ncc2c1CCCC2NCc1ccc(C)s1` (stereo not drawn) | -12.47% | 16.54% |
| `Cc1nn(C)c(N2CCOCC2)c1CNC1COc2ccccc2C1` (stereo not drawn) | - | -25.33% |
| `OC(COCc1cccs1)Cn1cc(Cl)cn1` (stereo not drawn) | 9.289% | 6.206% |
| `CS(=O)(=O)c1nccn1Cc1ccc(OC(F)F)cc1` | -2.902% | -33.53% |
| `[H][C@@]12C[C@@H](C(=O)NC)N(C(C)=O)[C@]1([H])CN(Cc1ccc(C)o1)C2` | 11.41% | 14.8% |
| `[H][C@@]12CCCO[C@]1([H])[C@H](NC(=O)C1CC1)CN2Cc1ccsc1` | -0.4879% | 4.45% |
| `CCOCCOC(C)C(=O)Nc1ccc2[nH]c(C)cc2c1` (stereo not drawn) | - | -20.19% |
| `Cc1ccc(Oc2nccnc2C2CCN(C(=O)C(C)(C)N)CC2)cc1` | - | -22.52% |
| `COc1cccc(SCC(=O)N2CCC(N3CCCC(O)C3)CC2)c1` (stereo not drawn) | -12.57% | -19.1% |
| `CCc1cccc(C)c1NC(=O)NCCCN(CC)S(C)(=O)=O` | -8.797% | 11.87% |
| `CCN(CC1CCOC1)C(=O)NCc1ccc(-n2cncn2)nc1` (stereo not drawn) | -66.04% | 18% |
| `CSC(C)(C)CNC(=O)NC1CCN(CC=C(C)C)CC1` | -67.5% | -35.03% |
| `[H][C@@]12CN(C(=O)c3cccn3C)C[C@]1([H])C(=O)N(CC)C2` | -16.8% | 97.42% |
| `CCOCC(O)CN1CCN(C(=O)c2ccc(C)nc2)CC1` (stereo not drawn) | - | 4.246% |
| `O=C(O)c1cc(-c2ccncc2)cc(S(=O)(=O)NCc2ccccn2)c1` | -17.31% | 7.038% |
| `Cc1ccc(CC(=O)N2CCN(CC(C)O)CC2)cn1` (stereo not drawn) | - | 3.329% |
| `CC(C)OCc1ncn2c1CN(Cc1cccs1)CCC2.O=C(O)C(F)(F)F` | -9.244% | -1.604% |
| `COc1ccccc1CNC(=O)CN(C)C(C)c1ccncn1` (stereo not drawn) | 1.408% | -4.492% |
| `Cc1noc(C)c1-c1cccc(C2CCN(S(=O)(=O)N(C)C)CC2)n1` | 42.71% | 2.266% |
| `Cc1noc(C)c1CCC(=O)NC(C)c1nnc2n1CCCCC2` (stereo not drawn) | - | 7.914% |
| `CCO[C@@H]1CCN(c2ccc(C)nn2)[C@@H]1Cc1cnn(C)c1` | 26% | -9.059% |
| `CSc1ccc(C(=O)C2CCCN(C(=O)CCCn3cncn3)C2)cc1` (stereo not drawn) | 10.83% | 4.965% |
| `CCC(C(=O)NCc1noc(Cc2cccs2)n1)n1cccn1` (stereo not drawn) | -4.14% | -14.6% |
| `COC(=O)c1ccc(OC)c(Cn2cc(N)cn2)c1` | 39.81% | 6.762% |
| `Cn1cc(CN2CCC3(CC2)CC(=O)Nc2ccccc23)cn1` | 22.95% | -9.022% |
| `Cn1cc(Cl)cc1C(=O)N1CCN(Cc2cccs2)CC1` | - | 4.394% |
| `CCCc1n[nH]c(C2CN(C(=O)c3cc(C4CC4)on3)CCO2)n1` (stereo not drawn) | - | 9.624% |
| `C[S+]([O-])CCNC(=O)N1CCSC(C)(C)C1` (stereo not drawn) | -54.42% | 3.579% |
| `Cc1cccc(CN2CC3(CCN(C4CCOC4)CC3)OCC2=O)n1.O=C(O)C(F)(F)F.O=C(O)C(F)(F)F` (stereo not drawn) | - | -30.47% |
| `CC(C)c1nnc(CN2CCc3ccc(S(N)(=O)=O)cc32)o1` | -23.79% | 0.8833% |
| `COCCn1cc(CC(=O)Nc2cc(C)n(C)n2)c2ccccc21` | 41.82% | -10.69% |
| `O=C(CN1C(=O)CC2(CCCC2)C1=O)NCCc1nccs1` | 24.51% | -17.63% |
| `c1cc(-c2nnn3c2COC(CNCc2nccs2)C3)ccn1` (stereo not drawn) | - | -17.02% |
| `CCOc1ccc(NC(=O)Cc2cc(C)[nH]n2)cc1CO` | 8.58% | -2.786% |
| `N#Cc1cc(NC(=O)C2CC=CC2)ccc1N1CCC(O)CC1` | - | 8.563% |
| `CC(C)Oc1ccccc1C1CC(=O)Nc2c1cnn2C` (stereo not drawn) | 9.139% | -3.812% |
| `COCCn1/c(=N/C(=O)C(C)C)sc2cc(Cl)ccc21` | -20.02% | -17.28% |
| `CCOc1ccc(CNC(=O)N(C)CC(C)(C)O)cc1C` | 5.72% | 0.2715% |
| `Cc1csc(CN(CC2CCCO2)C(=O)c2ccc(C)nc2C)n1` (stereo not drawn) | -7% | -42.17% |
| `Cc1ccccc1CN(CCN(C)C)Cc1ccccc1C(=O)O` | -51.23% | 21.99% |
| `CCCS(=O)(=O)N1CCC2(CN(c3ccsc3)C(=O)CN2C)C1.O=C(O)C(F)(F)F` (stereo not drawn) | 31.25% | 6.516% |
| `CN(Cc1cccnc1)CC1CNCc2nccn2C1` (stereo not drawn) | 40.06% | -11.86% |
| `CCC(C)Sc1nncn1-c1ccc(OC)nc1` (stereo not drawn) | 29.13% | -5.159% |
| `Fc1cccc(CN2CCC[C@H](Cn3nnc(-c4ccccn4)n3)C2)c1` | 14.75% | -11.78% |
| `Clc1ccccc1-c1cc(CNc2ncnc3c2CCNCC3)no1` | 42.33% | 15.47% |
| `CCn1cc(C(=O)Nc2ccc(C)cc2C(=O)OC)cn1` | 10.45% | 0.5711% |
| `Cc1cnc(N2CCCC3(CCOCC3)C2)nc1` | 15.17% | -5.221% |

Once more, the final 6:

{"compound": "CN(Cc1cccnc1)CC1CNCc2nccn2C1", "stereo": "stereo not drawn", "Mtb growth Cornell": 40.06, "Mtb heat-shock": -11.86}
{"compound": "CCC(C)Sc1nncn1-c1ccc(OC)nc1", "stereo": "stereo not drawn", "Mtb growth Cornell": 29.13, "Mtb heat-shock": -5.159}
{"compound": "Fc1cccc(CN2CCC[C@H](Cn3nnc(-c4ccccn4)n3)C2)c1", "Mtb growth Cornell": 14.75, "Mtb heat-shock": -11.78}
{"compound": "Clc1ccccc1-c1cc(CNc2ncnc3c2CCNCC3)no1", "Mtb growth Cornell": 42.33, "Mtb heat-shock": 15.47}
{"compound": "CCn1cc(C(=O)Nc2ccc(C)cc2C(=O)OC)cn1", "Mtb growth Cornell": 10.45, "Mtb heat-shock": 0.5711}
{"compound": "Cc1cnc(N2CCCC3(CCOCC3)C2)nc1", "Mtb growth Cornell": 15.17, "Mtb heat-shock": -5.221}

Measurements from “University of Dundee, Small-Polar-MMV Screening Library” (2021), ChEMBL document CHEMBL3988442.